The list shows a part of the results.
Compound: Cc1cc(ccc1-c1ccccc1)C(=O)N1CCCN(CC1)C(=O)CCl [compound 10]
Test: probe-labelled cysteine peptide fold change vs DMSO (competition) (log2 fold change); higher = less target engagement (more negative = stronger competition)
Settings: THP-1, incubation time: 4 h
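Further: competitive profiling in live THP-1 cells: cysteine peptides tagged with an iodoacetamide desthiobiotin (IA-DTB) probe, intensity after compound treatment relative to DMSO-treated cells.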

By UniProt entry, the sequences of proteins in these tests, tags left out. Where a name states a change or a piece, a line headed by the entry shows the natural chain unless it says otherwise.
UniProt P26640: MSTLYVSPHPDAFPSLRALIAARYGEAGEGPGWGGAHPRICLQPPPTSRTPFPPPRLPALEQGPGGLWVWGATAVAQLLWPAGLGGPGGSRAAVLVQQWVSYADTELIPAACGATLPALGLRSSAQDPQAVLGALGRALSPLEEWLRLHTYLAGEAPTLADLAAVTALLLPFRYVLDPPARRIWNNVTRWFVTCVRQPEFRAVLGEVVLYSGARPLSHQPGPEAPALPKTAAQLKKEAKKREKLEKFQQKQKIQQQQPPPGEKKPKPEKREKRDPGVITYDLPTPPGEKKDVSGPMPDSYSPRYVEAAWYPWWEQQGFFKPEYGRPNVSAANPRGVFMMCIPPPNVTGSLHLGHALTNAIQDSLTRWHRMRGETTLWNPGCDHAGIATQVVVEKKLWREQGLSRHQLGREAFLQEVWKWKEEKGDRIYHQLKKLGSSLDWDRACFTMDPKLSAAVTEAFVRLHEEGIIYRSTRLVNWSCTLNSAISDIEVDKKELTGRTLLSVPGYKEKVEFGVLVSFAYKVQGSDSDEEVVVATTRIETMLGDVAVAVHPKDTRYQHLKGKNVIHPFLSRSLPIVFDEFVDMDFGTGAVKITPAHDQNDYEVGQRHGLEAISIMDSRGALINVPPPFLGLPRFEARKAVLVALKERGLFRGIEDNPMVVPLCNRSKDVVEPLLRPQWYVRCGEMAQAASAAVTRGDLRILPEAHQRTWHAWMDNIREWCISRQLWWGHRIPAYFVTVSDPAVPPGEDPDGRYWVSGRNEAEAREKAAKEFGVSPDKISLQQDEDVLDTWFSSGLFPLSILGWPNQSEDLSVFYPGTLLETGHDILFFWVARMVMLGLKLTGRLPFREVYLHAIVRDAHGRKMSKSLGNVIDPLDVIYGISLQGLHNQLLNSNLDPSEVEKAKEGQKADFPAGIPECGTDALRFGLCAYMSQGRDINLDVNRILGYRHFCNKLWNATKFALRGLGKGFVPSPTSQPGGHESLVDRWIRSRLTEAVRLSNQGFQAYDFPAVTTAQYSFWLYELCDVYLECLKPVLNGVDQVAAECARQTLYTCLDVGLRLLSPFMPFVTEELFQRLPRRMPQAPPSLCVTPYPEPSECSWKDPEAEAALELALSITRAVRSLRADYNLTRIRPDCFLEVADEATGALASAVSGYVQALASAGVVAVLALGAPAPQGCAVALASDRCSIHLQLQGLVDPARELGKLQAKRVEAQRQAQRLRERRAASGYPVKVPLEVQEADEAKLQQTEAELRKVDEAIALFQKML
UniProt Q9H270: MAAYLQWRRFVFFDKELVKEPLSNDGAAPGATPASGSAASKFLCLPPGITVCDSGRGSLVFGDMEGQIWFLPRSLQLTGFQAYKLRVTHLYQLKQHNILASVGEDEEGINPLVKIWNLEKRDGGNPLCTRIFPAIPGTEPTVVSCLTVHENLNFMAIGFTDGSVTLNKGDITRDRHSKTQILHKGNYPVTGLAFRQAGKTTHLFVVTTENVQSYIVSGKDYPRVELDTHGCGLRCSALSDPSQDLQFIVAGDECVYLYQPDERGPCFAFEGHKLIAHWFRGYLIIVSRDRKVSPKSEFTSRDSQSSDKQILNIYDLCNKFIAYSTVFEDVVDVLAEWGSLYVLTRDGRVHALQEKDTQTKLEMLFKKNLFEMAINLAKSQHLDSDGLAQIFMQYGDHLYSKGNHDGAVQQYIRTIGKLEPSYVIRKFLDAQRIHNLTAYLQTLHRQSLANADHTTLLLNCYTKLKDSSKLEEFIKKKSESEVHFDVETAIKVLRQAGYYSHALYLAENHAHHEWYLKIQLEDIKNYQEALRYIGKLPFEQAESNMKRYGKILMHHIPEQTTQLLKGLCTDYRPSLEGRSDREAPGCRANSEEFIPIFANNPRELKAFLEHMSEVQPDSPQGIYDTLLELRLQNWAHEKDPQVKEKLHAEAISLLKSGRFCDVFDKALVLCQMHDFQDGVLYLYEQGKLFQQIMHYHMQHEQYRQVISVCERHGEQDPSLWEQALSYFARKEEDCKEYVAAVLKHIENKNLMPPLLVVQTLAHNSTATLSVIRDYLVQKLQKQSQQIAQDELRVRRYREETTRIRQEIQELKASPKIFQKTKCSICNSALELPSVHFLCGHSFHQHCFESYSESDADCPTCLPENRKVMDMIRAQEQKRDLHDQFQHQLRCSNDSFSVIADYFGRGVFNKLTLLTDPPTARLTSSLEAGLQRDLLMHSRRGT
UniProt Q709C8: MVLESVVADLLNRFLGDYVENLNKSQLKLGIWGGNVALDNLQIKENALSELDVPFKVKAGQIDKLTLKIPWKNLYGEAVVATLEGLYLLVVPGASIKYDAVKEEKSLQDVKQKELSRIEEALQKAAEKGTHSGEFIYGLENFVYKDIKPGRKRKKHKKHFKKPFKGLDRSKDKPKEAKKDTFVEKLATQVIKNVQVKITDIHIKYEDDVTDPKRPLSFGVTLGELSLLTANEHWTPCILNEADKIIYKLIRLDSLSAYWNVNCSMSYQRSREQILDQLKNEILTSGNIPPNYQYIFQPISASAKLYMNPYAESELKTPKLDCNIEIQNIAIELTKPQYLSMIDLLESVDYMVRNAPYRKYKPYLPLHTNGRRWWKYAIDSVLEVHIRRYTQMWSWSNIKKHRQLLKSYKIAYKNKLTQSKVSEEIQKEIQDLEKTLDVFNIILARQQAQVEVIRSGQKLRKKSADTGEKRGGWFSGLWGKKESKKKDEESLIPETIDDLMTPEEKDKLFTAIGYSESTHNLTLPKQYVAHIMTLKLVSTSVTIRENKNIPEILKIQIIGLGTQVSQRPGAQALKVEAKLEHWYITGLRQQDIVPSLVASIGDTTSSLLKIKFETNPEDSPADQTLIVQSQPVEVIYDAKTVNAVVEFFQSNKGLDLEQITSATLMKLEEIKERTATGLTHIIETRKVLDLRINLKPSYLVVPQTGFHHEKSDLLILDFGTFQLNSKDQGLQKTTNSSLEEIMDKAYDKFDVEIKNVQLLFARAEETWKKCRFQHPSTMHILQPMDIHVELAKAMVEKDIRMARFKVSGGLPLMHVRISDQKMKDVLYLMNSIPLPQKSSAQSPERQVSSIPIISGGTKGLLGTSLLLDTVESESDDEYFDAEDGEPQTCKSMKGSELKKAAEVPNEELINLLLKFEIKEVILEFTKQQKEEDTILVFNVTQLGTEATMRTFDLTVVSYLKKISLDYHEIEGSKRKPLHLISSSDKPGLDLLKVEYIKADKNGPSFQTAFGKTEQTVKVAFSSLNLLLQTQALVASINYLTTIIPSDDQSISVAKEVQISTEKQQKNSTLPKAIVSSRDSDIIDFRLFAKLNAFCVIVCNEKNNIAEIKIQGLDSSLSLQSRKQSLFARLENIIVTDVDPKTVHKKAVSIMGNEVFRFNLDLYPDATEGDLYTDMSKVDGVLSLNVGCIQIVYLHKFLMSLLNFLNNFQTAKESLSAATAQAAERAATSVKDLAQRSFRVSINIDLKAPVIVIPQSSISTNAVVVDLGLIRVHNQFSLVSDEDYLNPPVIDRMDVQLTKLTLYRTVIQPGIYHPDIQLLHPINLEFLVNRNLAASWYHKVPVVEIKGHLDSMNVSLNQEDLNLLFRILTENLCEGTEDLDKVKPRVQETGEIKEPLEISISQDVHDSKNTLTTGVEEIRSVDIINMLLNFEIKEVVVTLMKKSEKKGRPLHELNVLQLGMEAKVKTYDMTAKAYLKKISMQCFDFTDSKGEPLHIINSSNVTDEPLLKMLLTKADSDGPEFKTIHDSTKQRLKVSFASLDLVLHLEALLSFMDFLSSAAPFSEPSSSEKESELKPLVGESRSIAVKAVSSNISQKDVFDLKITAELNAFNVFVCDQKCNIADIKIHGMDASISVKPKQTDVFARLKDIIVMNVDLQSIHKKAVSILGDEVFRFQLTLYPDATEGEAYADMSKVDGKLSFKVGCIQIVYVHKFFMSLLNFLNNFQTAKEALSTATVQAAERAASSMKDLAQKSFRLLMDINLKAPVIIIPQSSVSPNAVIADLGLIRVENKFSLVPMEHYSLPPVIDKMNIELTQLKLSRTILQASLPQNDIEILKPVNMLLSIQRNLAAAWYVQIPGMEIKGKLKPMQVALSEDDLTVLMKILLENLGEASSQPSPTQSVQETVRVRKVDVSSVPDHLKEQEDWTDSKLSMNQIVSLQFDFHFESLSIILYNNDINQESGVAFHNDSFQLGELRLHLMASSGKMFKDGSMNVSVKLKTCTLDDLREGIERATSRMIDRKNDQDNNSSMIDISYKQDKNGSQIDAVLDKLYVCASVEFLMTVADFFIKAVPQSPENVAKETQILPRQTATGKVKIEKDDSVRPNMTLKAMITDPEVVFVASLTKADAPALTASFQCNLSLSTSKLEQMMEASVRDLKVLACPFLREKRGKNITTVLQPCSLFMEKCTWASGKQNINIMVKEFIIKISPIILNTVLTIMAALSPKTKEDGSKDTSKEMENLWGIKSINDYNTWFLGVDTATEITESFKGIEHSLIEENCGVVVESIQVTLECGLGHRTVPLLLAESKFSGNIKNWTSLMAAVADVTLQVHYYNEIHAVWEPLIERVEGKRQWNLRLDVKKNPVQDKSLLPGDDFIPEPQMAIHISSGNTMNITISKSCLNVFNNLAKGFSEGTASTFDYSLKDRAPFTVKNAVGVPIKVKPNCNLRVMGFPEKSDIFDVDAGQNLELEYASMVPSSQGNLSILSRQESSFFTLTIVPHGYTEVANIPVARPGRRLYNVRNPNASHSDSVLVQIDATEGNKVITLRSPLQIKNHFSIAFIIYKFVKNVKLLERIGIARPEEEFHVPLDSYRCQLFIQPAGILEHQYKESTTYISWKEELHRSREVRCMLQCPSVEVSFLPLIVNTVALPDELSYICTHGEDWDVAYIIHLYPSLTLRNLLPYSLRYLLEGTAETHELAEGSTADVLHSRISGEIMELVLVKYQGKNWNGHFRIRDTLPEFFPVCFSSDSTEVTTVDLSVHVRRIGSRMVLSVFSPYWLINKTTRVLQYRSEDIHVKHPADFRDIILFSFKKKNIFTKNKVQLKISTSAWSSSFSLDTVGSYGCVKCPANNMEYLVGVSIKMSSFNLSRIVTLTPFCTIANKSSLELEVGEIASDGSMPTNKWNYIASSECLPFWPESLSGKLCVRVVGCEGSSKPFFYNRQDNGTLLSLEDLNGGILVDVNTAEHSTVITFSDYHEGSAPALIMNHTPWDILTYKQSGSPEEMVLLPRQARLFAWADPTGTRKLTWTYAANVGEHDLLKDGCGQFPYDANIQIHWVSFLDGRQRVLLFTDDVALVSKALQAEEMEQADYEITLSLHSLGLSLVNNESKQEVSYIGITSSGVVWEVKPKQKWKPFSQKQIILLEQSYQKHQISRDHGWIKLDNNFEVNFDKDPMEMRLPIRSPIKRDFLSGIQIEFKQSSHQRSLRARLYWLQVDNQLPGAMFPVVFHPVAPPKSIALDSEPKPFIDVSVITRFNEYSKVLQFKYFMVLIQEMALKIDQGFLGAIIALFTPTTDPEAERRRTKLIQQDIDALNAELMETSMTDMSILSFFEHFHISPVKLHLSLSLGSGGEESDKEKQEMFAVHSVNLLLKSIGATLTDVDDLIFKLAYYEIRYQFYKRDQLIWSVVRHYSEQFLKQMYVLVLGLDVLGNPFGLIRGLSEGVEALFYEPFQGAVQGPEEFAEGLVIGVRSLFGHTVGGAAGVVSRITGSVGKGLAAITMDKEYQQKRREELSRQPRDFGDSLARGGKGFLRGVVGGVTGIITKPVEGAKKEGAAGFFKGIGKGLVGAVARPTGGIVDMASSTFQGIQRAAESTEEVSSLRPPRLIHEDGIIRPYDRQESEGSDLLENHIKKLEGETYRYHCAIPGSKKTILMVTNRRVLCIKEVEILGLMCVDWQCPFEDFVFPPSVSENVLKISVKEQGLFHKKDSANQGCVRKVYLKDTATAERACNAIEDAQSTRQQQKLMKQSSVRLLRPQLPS
UniProt Q9UK41: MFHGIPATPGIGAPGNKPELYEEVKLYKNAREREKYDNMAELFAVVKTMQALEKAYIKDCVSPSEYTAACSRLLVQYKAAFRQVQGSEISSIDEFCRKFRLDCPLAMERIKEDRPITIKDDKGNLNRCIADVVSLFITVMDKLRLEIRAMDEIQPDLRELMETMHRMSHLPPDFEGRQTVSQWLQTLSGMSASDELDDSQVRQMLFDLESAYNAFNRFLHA
UniProt P50552: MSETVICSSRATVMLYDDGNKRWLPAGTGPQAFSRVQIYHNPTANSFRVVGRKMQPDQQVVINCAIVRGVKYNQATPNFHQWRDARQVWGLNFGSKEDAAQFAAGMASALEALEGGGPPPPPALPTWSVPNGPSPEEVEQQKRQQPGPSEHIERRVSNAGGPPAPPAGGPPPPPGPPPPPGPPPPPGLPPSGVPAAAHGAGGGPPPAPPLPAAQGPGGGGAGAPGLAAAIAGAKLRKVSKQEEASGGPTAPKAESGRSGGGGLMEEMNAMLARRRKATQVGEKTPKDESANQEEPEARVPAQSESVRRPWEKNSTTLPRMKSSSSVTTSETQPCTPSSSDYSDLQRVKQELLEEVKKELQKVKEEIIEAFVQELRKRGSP

| Target | probe-labelled cysteine peptide fold change (10 µM) | probe-labelled cysteine peptide fold change (50 µM) |
| --- | --- | --- |
| VCPIP1_Q96JH7_207+219_SQECLIPVHVDGDGHCLVHAVSR (UniProt Q96JH7) | -1.2 | -1.48 |
| VCL_P18206_1018_ALIQCAK (UniProt P18206) | 0.202 | 0.118 |
| VCPIP1_Q96JH7_472_CLLCGALSELHVPPEWLAPGGK (UniProt Q96JH7) | 0.086 | 0.155 |
| VCPIP1_Q96JH7_541_DVLVPDYGMSNLTACNWCHGTSVR (UniProt Q96JH7) | -0.0935 | -0.482 |
| VPS39_Q96JC1_681_LICDFPFDGLLEER (UniProt Q96JC1) | 0.24 | -0.133 |
| VPS16_Q9H269_763_KSPIGYLPFVEICMK (UniProt Q9H269) | -0.0596 | -0.435 |
| VARS_P26640_663_GIEDNPMVVPLCNR (UniProt P26640) | -0.209 | -0.093 |
| VPS11_Q9H270_890_CSNDSFSVIADYFGR (UniProt Q9H270) | 0.0291 | -0.241 |
| VPS16_Q9H269_763_SPIGYLPFVEICMK (UniProt Q9H269) | 0.149 | 0.152 |
| WASHC4_Q2M389_659_HLESYEILLDCYDK (UniProt Q2M389) | 0.156 | 0.271 |
| VRK2_Q86Y07_239_SDVEILGYCMLR (UniProt Q86Y07) | 0.146 | 0.28 |
| VPS39_Q96JC1_467_CYLHTNVALVAPLLR (UniProt Q96JC1) | 0.218 | 0.168 |
| USP9X_Q93008_2293_KIIEDCSNSEETVK (UniProt Q93008) | 0.207 | -0.0195 |
| VAV1_P15498_71_EVNLRPQMSQFLCLK (UniProt P15498) | -0.258 | -0.0872 |
| VLDLR_P98155_97_CDGDPDCEDGSDESPEQCHMR (UniProt P98155) | 0.0414 | -0.483 |
| USP9X_Q93008_864_EYINECDSDYHEER (UniProt Q93008) | -0.017 | -0.113 |
| VPS13C_Q709C8_2588_CQLFIQPAGILEHQYK (UniProt Q709C8) | 0.248 | 0.197 |
| VCPIP1_Q96JH7_344_DGHLNKPICIAWSSSGR (UniProt Q96JH7) | -0.152 | -0.163 |
| VPS28_Q9UK41_70_DCVSPSEYTAACSR (UniProt Q9UK41) | 0.508 | 0.178 |
| VASP_P50552_64_KMQPDQQVVINCAIVR (UniProt P50552) | 0.0548 | -0.316 |

Record cards, as listed above. Values in the order: probe-labelled cysteine peptide fold change (10 µM)	probe-labelled cysteine peptide fold change (50 µM)
VCPIP1_Q96JH7_472_CLLCGALSELHVPPEWLAPGGK (UniProt Q96JH7) is listed with 0.086	0.155
VARS_P26640_663_GIEDNPMVVPLCNR (UniProt P26640) is listed with -0.209	-0.093

Remaining list, next part.

| Target | probe-labelled cysteine peptide fold change (10 µM) | probe-labelled cysteine peptide fold change (50 µM) |
| --- | --- | --- |
| VARS_P26640_682_CGEMAQAASAAVTR (UniProt P26640) | -0.0336 | -0.0251 |
| UTRN_P46939_2185_ECIQEPSSVSQTR (UniProt P46939) | -0.215 | -0.25 |
| UTP4_Q969X6_21_CVAYNNQSNR (UniProt Q969X6) | 0.215 | 0.152 |
| VLDLR_P98155_367_ECHINECLVNNGGCSHICK (UniProt P98155) | 0.0844 | -0.17 |
| VPS13C_Q709C8_2276+2289_GIEHSLIEENCGVVVESIQVTLECGLGHR (UniProt Q709C8) | -0.0638 | 0.163 |
| VPS11_Q9H270_568_GLCTDYRPSLEGR (UniProt Q9H270) | -0.077 | -0.168 |
| VAMP7_P51809_56_LTYSHGNYLFHYICQDR (UniProt P51809) | 0.26 | 0.546 |
| VBP1_P61758_113_FLLADNLYCK (UniProt P61758) | 0.447 | 0.0658 |
| VASP_P50552_64_MQPDQQVVINCAIVR (UniProt P50552) | 0.0559 | 0.166 |
| VPS28_Q9UK41_103_FRLDCPLAMER (UniProt Q9UK41) | -0.0279 | -0.0784 |
| VPS18_Q9P253_741_QCADLPEEDEELR (UniProt Q9P253) | 0.179 | 0.173 |
| VIM_P08670_328_RQVQSLTCEVDALK (UniProt P08670) | 0.00911 | -0.139 |
| VPS54_Q9P1Q0_40_HIRPVPSLPDVCPK (UniProt Q9P1Q0) | -0.406 | -0.101 |
| USP9Y_O00507_684_CLAENAVYLCDR (UniProt O00507) | 0.0416 | 0.0594 |
| VPS13C_Q709C8_1998_TCTLDDLR (UniProt Q709C8) | 0.104 | 0.414 |
| VPS13C_Q709C8_2395_SCLNVFNNLAK (UniProt Q709C8) | 0.182 | 0.215 |
| VARS_P26640_444_ACFTMDPK (UniProt P26640) | 0.207 | -0.117 |
| WAPL_Q7Z5K2_1190_VIEYLEHC (UniProt Q7Z5K2) | 0.045 | 0.109 |
| VPS13A_Q96RL7_582_CIIEAEPLEIIYDAR (UniProt Q96RL7) | 0.185 | 0.463 |
